According to US10905764B2, “Hydrated food” (Taiyokagaku Co., Ltd., priority 2005, dated 2021):

Experiments:
panelists [1] = experiment: Sensory evaluation: bitter taste of L-phenylalanine with addition of pyroglutamic acid and theanine (1:50); assay type: in vivo; conditions: for number of panelists who felt the bitter taste of L-phenylalanine: ten panelists
panelists [2] = experiment: Sensory evaluation: bitter taste of acesulfame K with addition of pyroglutamic acid and theanine (1:50); assay type: in vivo; conditions: for number of panelists who felt the bitter taste of acesulfame K: ten panelists
panelists [3] = experiment: Sensory evaluation: bitter taste of aspartame with addition of pyroglutamic acid and theanine (1:50); assay type: in vivo; conditions: for number of panelists who felt the bitter taste of aspartame: ten panelists
panelists [4] = experiment: Sensory evaluation: taste of glutamine with addition of pyroglutamic acid; assay type: in vivo; conditions: for number of panelists who felt the taste (pyroglutamic acid alone): ten panelists
panelists [5] = experiment: Sensory evaluation: taste of theanine with addition of pyroglutamic acid; assay type: in vivo; conditions: for number of panelists who felt the taste (pyroglutamic acid alone) / number of panelists who felt the taste of theanine: ten panelists
panelists [6] = experiment: Sensory evaluation: taste of glutamic acid with addition of pyroglutamic acid; assay type: in vivo; conditions: ten panelists
[7] = minimum concentration at which taste can be perceived; cited from earlier work

N[C@@H](Cc1ccccc1)C(=O)O [L-phenylalanine]
number of panelists who felt the bitter taste of L-phenylalanine (panelists [1]; L-phenylalanine 10, pyroglutamic acid/theanine 0 (mg/100 ml)): 0 | number of panelists who felt the bitter taste of L-phenylalanine (panelists [1]; L-phenylalanine 10, pyroglutamic acid/theanine 1 (mg/100 ml)): 0 | number of panelists who felt the bitter taste of L-phenylalanine (panelists [1]; L-phenylalanine 10, pyroglutamic acid/theanine 10 (mg/100 ml)): 0 | number of panelists who felt the bitter taste of L-phenylalanine (panelists [1]; L-phenylalanine 10, pyroglutamic acid/theanine 50 (mg/100 ml)): 0 | number of panelists who felt the bitter taste of L-phenylalanine (panelists [1]; L-phenylalanine 10, pyroglutamic acid/theanine 100 (mg/100 ml)): 0 | number of panelists who felt the bitter taste of L-phenylalanine (panelists [1]; L-phenylalanine 30, pyroglutamic acid/theanine 1 (mg/100 ml)): 1 | number of panelists who felt the bitter taste of L-phenylalanine (panelists [1]; L-phenylalanine 30, pyroglutamic acid/theanine 50 (mg/100 ml)): 0 | number of panelists who felt the bitter taste of L-phenylalanine (panelists [1]; L-phenylalanine 30, pyroglutamic acid/theanine 100 (mg/100 ml)): 0 | number of panelists who felt the bitter taste of L-phenylalanine (panelists [1]; L-phenylalanine 50, pyroglutamic acid/theanine 0 (mg/100 ml)): 10 | number of panelists who felt the bitter taste of L-phenylalanine (panelists [1]; L-phenylalanine 50, pyroglutamic acid/theanine 1 (mg/100 ml)): 3 | number of panelists who felt the bitter taste of L-phenylalanine (panelists [1]; L-phenylalanine 50, pyroglutamic acid/theanine 10 (mg/100 ml)): 1 | number of panelists who felt the bitter taste of L-phenylalanine (panelists [1]; L-phenylalanine 50, pyroglutamic acid/theanine 50 (mg/100 ml)): 0 | number of panelists who felt the bitter taste of L-phenylalanine (panelists [1]; L-phenylalanine 50, pyroglutamic acid/theanine 100 (mg/100 ml)): 0 | number of panelists who felt the bitter taste of L-phenylalanine (panelists [1]; L-phenylalanine 100, pyroglutamic acid/theanine 0 (mg/100 ml)): 10 | number of panelists who felt the bitter taste of L-phenylalanine (panelists [1]; L-phenylalanine 100, pyroglutamic acid/theanine 1 (mg/100 ml)): 5 | number of panelists who felt the bitter taste of L-phenylalanine (panelists [1]; L-phenylalanine 100, pyroglutamic acid/theanine 10 (mg/100 ml)): 3 | number of panelists who felt the bitter taste of L-phenylalanine (panelists [1]; L-phenylalanine 100, pyroglutamic acid/theanine 50 (mg/100 ml)): 1 | threshold of L-phenylalanine (panelists [1]; no mixture added): 30 mg/100 ml

CC1=CC(=O)NS(=O)(=O)O1 [acesulfame K, acesulfame potassium]
number of panelists who felt the bitter taste of acesulfame K (panelists [2]; acesulfame K 1, pyroglutamic acid/theanine 0 (mg/100 ml)): 0 | number of panelists who felt the bitter taste of acesulfame K (panelists [2]; acesulfame K 1, pyroglutamic acid/theanine 1 (mg/100 ml)): 0 | number of panelists who felt the bitter taste of acesulfame K (panelists [2]; acesulfame K 1, pyroglutamic acid/theanine 10 (mg/100 ml)): 0 | number of panelists who felt the bitter taste of acesulfame K (panelists [2]; acesulfame K 1, pyroglutamic acid/theanine 50 (mg/100 ml)): 0 | number of panelists who felt the bitter taste of acesulfame K (panelists [2]; acesulfame K 1, pyroglutamic acid/theanine 100 (mg/100 ml)): 0 | number of panelists who felt the bitter taste of acesulfame K (panelists [2]; acesulfame K 3, pyroglutamic acid/theanine 1 (mg/100 ml)): 3 | number of panelists who felt the bitter taste of acesulfame K (panelists [2]; acesulfame K 3, pyroglutamic acid/theanine 50 (mg/100 ml)): 0 | number of panelists who felt the bitter taste of acesulfame K (panelists [2]; acesulfame K 3, pyroglutamic acid/theanine 100 (mg/100 ml)): 0 | number of panelists who felt the bitter taste of acesulfame K (panelists [2]; acesulfame K 5, pyroglutamic acid/theanine 0 (mg/100 ml)): 9 | number of panelists who felt the bitter taste of acesulfame K (panelists [2]; acesulfame K 5, pyroglutamic acid/theanine 1 (mg/100 ml)): 4 | number of panelists who felt the bitter taste of acesulfame K (panelists [2]; acesulfame K 5, pyroglutamic acid/theanine 10 (mg/100 ml)): 1 | number of panelists who felt the bitter taste of acesulfame K (panelists [2]; acesulfame K 5, pyroglutamic acid/theanine 50 (mg/100 ml)): 0 | number of panelists who felt the bitter taste of acesulfame K (panelists [2]; acesulfame K 5, pyroglutamic acid/theanine 100 (mg/100 ml)): 0 | number of panelists who felt the bitter taste of acesulfame K (panelists [2]; acesulfame K 10, pyroglutamic acid/theanine 0 (mg/100 ml)): 10 | number of panelists who felt the bitter taste of acesulfame K (panelists [2]; acesulfame K 10, pyroglutamic acid/theanine 1 (mg/100 ml)): 6 | number of panelists who felt the bitter taste of acesulfame K (panelists [2]; acesulfame K 10, pyroglutamic acid/theanine 10 (mg/100 ml)): 2 | number of panelists who felt the bitter taste of acesulfame K (panelists [2]; acesulfame K 10, pyroglutamic acid/theanine 50 (mg/100 ml)): 1 | threshold of acesulfame K (panelists [2]; no mixture added): 3 mg/100 ml

COC(=O)[C@H](Cc1ccccc1)NC(=O)[C@@H](N)CC(=O)O [aspartame] (H-Asp-Phe-OMe)
number of panelists who felt the bitter taste of aspartame (panelists [3]; aspartame 1, pyroglutamic acid/theanine 0 (mg/100 ml)): 0 | number of panelists who felt the bitter taste of aspartame (panelists [3]; aspartame 1, pyroglutamic acid/theanine 1 (mg/100 ml)): 0 | number of panelists who felt the bitter taste of aspartame (panelists [3]; aspartame 1, pyroglutamic acid/theanine 10 (mg/100 ml)): 0 | number of panelists who felt the bitter taste of aspartame (panelists [3]; aspartame 1, pyroglutamic acid/theanine 50 (mg/100 ml)): 0 | number of panelists who felt the bitter taste of aspartame (panelists [3]; aspartame 1, pyroglutamic acid/theanine 100 (mg/100 ml)): 0 | number of panelists who felt the bitter taste of aspartame (panelists [3]; aspartame 3, pyroglutamic acid/theanine 1 (mg/100 ml)): 4 | number of panelists who felt the bitter taste of aspartame (panelists [3]; aspartame 3, pyroglutamic acid/theanine 50 (mg/100 ml)): 0 | number of panelists who felt the bitter taste of aspartame (panelists [3]; aspartame 3, pyroglutamic acid/theanine 100 (mg/100 ml)): 0 | number of panelists who felt the bitter taste of aspartame (panelists [3]; aspartame 5, pyroglutamic acid/theanine 0 (mg/100 ml)): 10 | number of panelists who felt the bitter taste of aspartame (panelists [3]; aspartame 5, pyroglutamic acid/theanine 1 (mg/100 ml)): 2 | number of panelists who felt the bitter taste of aspartame (panelists [3]; aspartame 5, pyroglutamic acid/theanine 10 (mg/100 ml)): 1 | number of panelists who felt the bitter taste of aspartame (panelists [3]; aspartame 5, pyroglutamic acid/theanine 50 (mg/100 ml)): 0 | number of panelists who felt the bitter taste of aspartame (panelists [3]; aspartame 5, pyroglutamic acid/theanine 100 (mg/100 ml)): 0 | number of panelists who felt the bitter taste of aspartame (panelists [3]; aspartame 10, pyroglutamic acid/theanine 0 (mg/100 ml)): 10 | number of panelists who felt the bitter taste of aspartame (panelists [3]; aspartame 10, pyroglutamic acid/theanine 1 (mg/100 ml)): 4 | number of panelists who felt the bitter taste of aspartame (panelists [3]; aspartame 10, pyroglutamic acid/theanine 10 (mg/100 ml)): 3 | number of panelists who felt the bitter taste of aspartame (panelists [3]; aspartame 10, pyroglutamic acid/theanine 50 (mg/100 ml)): 1 | threshold of aspartame (panelists [3]; no mixture added): 3 mg/100 ml

NC(=O)CC[C@H](N)C(=O)O [glutamine, 2-aminoglutalamid acid]
threshold of glutamine (panelists [4]; no pyroglutamic acid): 250 mg/100 ml

O=C1CCC(C(=O)O)N1 (centres unmarked) [pyroglutamic acid, 2-pyrrolidone-5-carboxylic acid]
number of panelists who felt the taste (pyroglutamic acid alone) (panelists [5]; theanine 0, pyroglutamic acid 1 (mg/100 ml)): 0 | number of panelists who felt the taste (pyroglutamic acid alone) (panelists [5]; theanine 0, pyroglutamic acid 10 (mg/100 ml)): 0 | number of panelists who felt the taste (pyroglutamic acid alone) (panelists [5]; theanine 0, pyroglutamic acid 50 (mg/100 ml)): 0 | number of panelists who felt the taste (pyroglutamic acid alone) (panelists [4]; glutamine 0, pyroglutamic acid 1 (mg/100 ml)): 0 | number of panelists who felt the taste (pyroglutamic acid alone) (panelists [4]; glutamine 0, pyroglutamic acid 10 (mg/100 ml)): 0 | number of panelists who felt the taste (pyroglutamic acid alone) (panelists [4]; glutamine 0, pyroglutamic acid 50 (mg/100 ml)): 0 | number of panelists who felt the taste (pyroglutamic acid alone) (panelists [6]; glutamic acid 0, pyroglutamic acid 1 (mg/100 ml)): 0 | number of panelists who felt the taste (pyroglutamic acid alone) (panelists [6]; glutamic acid 0, pyroglutamic acid 10 (mg/100 ml)): 0 | number of panelists who felt the taste (pyroglutamic acid alone) (panelists [6]; glutamic acid 0, pyroglutamic acid 50 (mg/100 ml)): 0

CCNC(=O)CC[C@H](N)C(=O)O [theanine, L-theanine]
threshold of theanine (panelists [5]; no pyroglutamic acid): 150 mg/100 ml | number of panelists who felt the taste of theanine (panelists [5]; theanine 100, pyroglutamic acid 0 (mg/100 ml)): 0 | number of panelists who felt the taste of theanine (panelists [5]; theanine 100, pyroglutamic acid 1 (mg/100 ml)): 0 | number of panelists who felt the taste of theanine (panelists [5]; theanine 100, pyroglutamic acid 10 (mg/100 ml)): 0 | number of panelists who felt the taste of theanine (panelists [5]; theanine 100, pyroglutamic acid 50 (mg/100 ml)): 0 | number of panelists who felt the taste of theanine (panelists [5]; theanine 100, pyroglutamic acid 100 (mg/100 ml)): 0 | number of panelists who felt the taste of theanine (panelists [5]; theanine 150, pyroglutamic acid 1 (mg/100 ml)): 2 | number of panelists who felt the taste of theanine (panelists [5]; theanine 150, pyroglutamic acid 50 (mg/100 ml)): 0 | number of panelists who felt the taste of theanine (panelists [5]; theanine 150, pyroglutamic acid 100 (mg/100 ml)): 0 | number of panelists who felt the taste of theanine (panelists [5]; theanine 500, pyroglutamic acid 0 (mg/100 ml)): 10 | number of panelists who felt the taste of theanine (panelists [5]; theanine 500, pyroglutamic acid 1 (mg/100 ml)): 3 | number of panelists who felt the taste of theanine (panelists [5]; theanine 500, pyroglutamic acid 10 (mg/100 ml)): 1 | number of panelists who felt the taste of theanine (panelists [5]; theanine 500, pyroglutamic acid 50 (mg/100 ml)): 0 | number of panelists who felt the taste of theanine (panelists [5]; theanine 500, pyroglutamic acid 100 (mg/100 ml)): 0 | number of panelists who felt the taste of theanine (panelists [5]; theanine 1000, pyroglutamic acid 0 (mg/100 ml)): 10 | number of panelists who felt the taste of theanine (panelists [5]; theanine 1000, pyroglutamic acid 1 (mg/100 ml)): 5 | number of panelists who felt the taste of theanine (panelists [5]; theanine 1000, pyroglutamic acid 10 (mg/100 ml)): 3 | number of panelists who felt the taste of theanine (panelists [5]; theanine 1000, pyroglutamic acid 50 (mg/100 ml)): 1 | taste threshold [7]: 150 mg/100 ml

Peptide text beside a SMILES is read from it.
